# “And” between values parts separate entries of the source, which are not always exact repeats. Equal entries are not always repeated. The list shows a part of the results. These are further read-outs of the screen, such as a control signal, another cell line or another target. No call is given for them. The list favours compounds with an active or inconclusive main result. For some assays here: Potencies come from curve fits of mixed quality, noted in brackets.
# What was measured:
# [1] = Validation of Assay for Modulators of Lamin A Splicing (AID 1459); conditions: Lamin A splicing dual RFP/GFP fluorescence reporter, ratio
# In short: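 Readout: ratio of GFP (500-530 nm) to RFP (575-640 nm) total object intensity by 488 nm laser-scanning cytometry after 48 hrs. Cells were HeLa S3 clones carrying lamin A-EGFP minigene plus DsRed2 viability reporter; vehicle 0.5% DMSO final.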
# [2] = qHTS Assay for Lipid Storage Modulators (AID 1519); conditions: Drosophila S3 cells, BODIPY lipid droplet/cell ratio, laser cytometry, cells loaded with oleic acid
# In short: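 Cells seeded at 5,000 per well were treated with compounds over a concentration series and loaded with oleic acid (400 uM, as added). Lipid droplet fluorescence (488 nm excitation, 500-530 nm channel) was read by laser-scanning cytometry and normalized to 20 uM Triacsin C.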
# [3] = qHTS Assay for Modulators of Human Peripheral Myelin Protein 22 (PMP22) Expression/Activity (AID 1967); conditions: Cell-based PMP22 reporter, dual-color luciferase ratio
# In short: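 Mouse MSC80 Schwann line, Pmp22 promoter–CBG68 reporter, EF-alpha–CBR internal control. 24h compound exposure, 37 °C/5% CO2, DMEM + 10% FBS. Readout: corrected green/red luminescence ratio, normalized to untreated cells; concentration-response curves fitted and classified.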
# [4] = qHTS Validation Assay to Find Inhibitors of Chronic Active B-Cell Receptor Signaling (AID 485345); conditions: ABC-DLBCL cells, chronic BCR signaling reporter
# In short: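 TMD8 ABC-DLBCL cells stably carrying doxycycline-inducible IkappaBalpha–green luciferase fusion plus unfused red luciferase; compounds 46 uM to 3 nM, 4 h at 37C with doxycycline. Corrected green/red luminescence ratio normalized to 10 uM MG-132 and basal cell wells; curves fitted.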
# [5] = qHTS assay for small molecule antagonists of peroxisome proliferator-activated receptor delta signaling (AID 588535); conditions: HEK293T PPARd-UAS-bla, beta-lactamase FRET ratio, 18 h; 460 nm channel;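 note: cells co-treated with a PPAR-delta agonist as stimulator during compound exposure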
# In short: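 Cells were seeded at 4000 per well in assay medium containing 2% charcoal/dextran FBS and held 5 hrs at 37 C. Compounds were then added for 18 hrs. CCF4 substrate was applied for 2 hrs at room temperature before fluorescence reading.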
# [6] = qHTS for identification of novel therapeutic agents for treatment of microphthalmiaassociated transcription factor (MiT) renal cell carcinoma (RCC) (AID 1963991); conditions: CellTiter-Glo, 48 h; for z-score: stronger effect = lower value
# In short: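 Three TFE3-fusion RCC cell lines (UOK109, UOK124, UOK145), 500 cells/well, were exposed to the 1912-compound MIPE 4.0 library for 48 hours at 37 C. Viability was read by CellTiter-Glo luminescence, normalised to DMSO (100%) and empty wells (0%), with 11-concentration curve fits.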
# [7] = qHTS Assay for Inhibitors of PDE-IV (AID 607); conditions: HEK293 ACTOne CNG channel cells, membrane potential fluorescence; measured here: parental cell counter-screen
# In short: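 ACTOne HEK293 cells carry a modified cAMP-gated CNG channel and express endogenous PDE4; plated 1000 cells/well, compounds up to 22.9 uM final. Membrane-potential dye fluorescence (ex 535/em 590) was read; parental cells received 10 uM forskolin + 100 uM RO 20-1724.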
# [8] = qHTS assay for small molecule antagonists of vitamin D receptor signaling (AID 588541); conditions: HEK293T VDR-UAS-bla, beta-lactamase ratio, antagonist mode; measured here: W460 blue channel (cell viability)
# [9] = qHTS assay for small molecule agonists of retinoid X receptor alpha signaling (AID 588544); conditions: HEK293T RXRa-UAS-bla, beta-lactamase reporter, 18 h; 530 nm emission
# [10] = A High-Content qHTS Against Drug Library for the Identification of Small Molecules that Inhibit DYT1 Early Onset Primary Dystonia-Associated Cell Pathology (AID 1645839); conditions: HEK293 Flp-In EGFP-delE TorsinA, punctate imaging, 48 h; measured here: cell count cytotoxicity
# In short: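 Flp-In T-REx 293 cells with tetracycline-inducible EGFP-delE hTOR1A (WT EGFP-hTOR1A as reference), 800 cells/well; compound added with tetracycline, 48 h at 37 C. Fixed, permeabilized cells imaged; %pathology (punctate TorsinA) primary, cell count counterscreen.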
# [11] = measured here: cell count channel max response
# [12] = measured here: lipid channel max response
# [13] = measured here: green reporter channel AC50, mouse Pmp22 promoter in mouse Schwann cells
# [14] = measured here: red reporter channel AC50, EF-alpha promoter control reporter in MSC80 mouse Schwann cells
# [15] = measured here: CBR control luciferase (viability counter)
# [16] = TFE3-RCC UOK109 viability, measured here: UOK109 Z-AUC
# [17] = TFE3-RCC viability, measured here: UOK124 Z-AUC
# [18] = TFE3-RCC viability, measured here: UOK145 Z-AUC
# [19] = TFE3-RCC viability, measured here: UOK145 cell viability
# [20] = measured here: cell number channel AC50
# [21] = measured here: lipid (BODIPY) channel AC50
# [22] = measured here: CBG/CBR ratio read-out
compound,measurement,setting,value
NC(N)=NOCCC(N)C(=O)O (stereo unspecified),AC50,[1]; measured here: GFP channel,"28.2 µM [falling, partial curve]"
same,AC50,[1]; measured here: RFP channel,"28.2 µM [falling, partial curve]"
C[C@@H]1O[C@@H](O[C@H]2C[C@@H](O)[C@]3(CO)[C@H]4[C@H](O)C[C@]5(C)[C@@H]([C@@H]6COC(=O)C6)CC[C@]5(O)[C@@H]4CC[C@]3(O)C2)[C@H](O)[C@H](O)[C@H]1O,AC50,[1]; measured here: GFP channel,"2.82 µM [falling, full curve, poor fit]"
same,AC50,[1]; measured here: RFP channel,"2.82 µM [falling, full curve, poor fit]"
same,max response,[2]; [11],63.6%
same,max response,[2]; [12],64.3%
O=C(O)CCCc1ccc(N(CCCl)CCCl)cc1,AC50,[1]; measured here: GFP channel,"15.8 µM [falling, single point]"
same,AC50,[1]; measured here: RFP channel,"15.8 µM [falling, single point]"
same,max response,[2]; [11],39.2%
same,max response,[2]; [12],37.5%
same,AC50,[3]; [13],"1.9 µM [falling, full curve]"
same,AC50,[3]; [14],"33.8 µM [falling, partial curve]"
same,AC50,[4]; [15],"4.61 µM [rising, full curve, poor fit]"
same,max response,[5],65.5%
same,z-score,[6]; [16],-0.0979
same,z-score,[6]; [17],-0.516
same,AC50,"[6]; TFE3-RCC viability, measured here: UOK124 cell viability","7.43 µM [rising, single point]"
same,z-score,[6]; [18],-0.504
same,AC50,[6]; [19],"37.2 µM [falling, partial curve, poor fit]"
Cc1nc(-c2ccc(-c3ccc(C(=O)N4CCc5cc6c(cc54)C4(CCN(C)CC4)CO6)cc3)c(C)c2)no1,AC50,[7],"12.6 µM [rising, partial curve] and 15.8 µM [rising, partial curve]"
same,AC50,[1]; measured here: GFP channel,"11.2 µM [falling, partial curve]"
same,AC50,[1]; measured here: RFP channel,"12.6 µM [falling, partial curve]"
same,max response,[2]; [11],63.6% and 44.2%
same,AC50,[2]; [20],"15.8 µM [rising, partial curve, poor fit]"
same,AC50,[2]; [21],"17.8 µM [rising, partial curve, poor fit]"
same,max response,[2]; [12],75.9% and 45.4%
same,AC50,[3]; [13],"16.9 µM [falling, full curve]"
same,AC50,[3]; [14],"16.9 µM [falling, full curve]"
same,z-score,[6]; [16],0.6
same,z-score,[6]; [17],0.627
same,z-score,[6]; [18],0.641
C=CCN1CCc2cccc3c2C1Cc1ccc(O)c(O)c1-3 (stereo unspecified),AC50,[1]; measured here: GFP channel,"35.5 µM [falling, single point]"
same,AC50,[1]; measured here: RFP channel,"20 µM [falling, partial curve]"
same,max response,[2]; [11],-57.1%
same,AC50,[2]; [20],"0.2 µM [falling, full curve, poor fit]"
same,AC50,[2]; [21],"0.141 µM [falling, full curve, poor fit]"
same,max response,[2]; [12],-57.9%
same,AC50,[3]; [13],"67.5 µM [falling, partial curve]"
same,AC50,[3]; [14],"47.8 µM [falling, partial curve, poor fit]"
COc1cc(-c2ccc(=O)[nH]n2)ccc1OC(F)F,AC50,[1]; measured here: GFP channel,"7.08 µM [falling, partial curve]"
same,AC50,[1]; measured here: RFP channel,"2 µM [falling, full curve]"
same,max response,[2]; [11],91.8% and 16.6%
same,AC50,[2]; [20],"15.8 µM [rising, partial curve, poor fit]"
same,AC50,[2]; [21],"15.8 µM [rising, partial curve, poor fit] and 2.51 nM [falling, full curve, poor fit]"
same,max response,[2]; [12],119% and 13.9%
same,AC50,[3]; [14],"75.7 µM [falling, partial curve]"
O=c1[nH]c2ccccc2n1C1CCN(CCCC(c2ccc(F)cc2)c2ccc(F)cc2)CC1,AC50,[1]; measured here: GFP channel,"35.5 µM [falling, single point]"
same,AC50,[1]; measured here: RFP channel,"28.2 µM [falling, partial curve]"
same,AC50,[2]; [20],"8.91 µM [rising, partial curve] and 20 µM [falling, single point] and 8.91 µM [falling, full curve, poor fit]"
same,AC50,[2]; [21],"2.82 µM [rising, partial curve, poor fit] and 12.6 µM [falling, full curve, poor fit]"
same,AC50,[3]; [13],"33.8 µM [falling, full curve]"
same,AC50,[3]; [14],"26.9 µM [falling, full curve]"
same,AC50,[4]; [22],"18.4 µM [falling, partial curve]"
same,AC50,[4]; [15],"2.31 µM [rising, full curve, poor fit]"
same,AC50,[8],"0.398 µM [rising, full curve, poor fit]"
same,max response,[9],-21.5%
same,AC50,[10],"11.2 µM [falling, partial curve]"
COC[C@H]1OC(=O)c2coc3c2[C@@]1(C)C1=C(C3=O)C2CCC(=O)[C@@]2(C)C[C@H]1OC(C)=O (stereo partly specified),AC50,[1]; measured here: GFP channel,"15.8 µM [falling, single point]"
same,AC50,[1]; measured here: RFP channel,"35.5 µM [falling, single point]"
same,max response,[2]; [11],-86.6%
same,AC50,[2]; [20],"22.4 µM [falling, partial curve]"
same,AC50,[2]; [21],"22.4 µM [falling, partial curve, poor fit]"
same,max response,[2]; [12],-87.3%
same,AC50,[3]; [13],"26.9 µM [falling, full curve]"
same,AC50,[3]; [14],"37.9 µM [falling, partial curve]"
same,AC50,[4]; [22],"0.326 µM [falling, full curve]"
same,AC50,[4]; [15],"4.11 µM [rising, full curve]"
same,z-score,[6]; [16],-0.0779
same,z-score,[6]; [17],0.269
same,z-score,[6]; [18],0.055
same,AC50,[6]; [19],"8.33 µM [falling, partial curve]"

# 5 entries from above, with tabs:
compound	measurement	setting	value
C=CCN1CCc2cccc3c2C1Cc1ccc(O)c(O)c1-3 (stereo unspecified)	max response	[2]; [12]	-57.9%
same	AC50	[3]; [13]	67.5 µM [falling, partial curve]
same	AC50	[3]; [14]	47.8 µM [falling, partial curve, poor fit]
COc1cc(-c2ccc(=O)[nH]n2)ccc1OC(F)F	AC50	[1]; measured here: GFP channel	7.08 µM [falling, partial curve]
same	AC50	[1]; measured here: RFP channel	2 µM [falling, full curve]

# From PubChem BioAssay (NCATS)
